Results reported in the supplement of paper PMC12823440, “Inhibitors supercharge kinase turnover through native proteolytic circuits” (Nature, 2025).
Counter-ions that a name gives are not always drawn. The list shows a part of the results. The calls rarely recur for the same compound in another form.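 Kinases, fused to nanoluciferase, were expressed in K562 cells; luminescence was measured every 4 h from 2 to 18 h as percent of control (DMSO = 100%, positive control = 0%). A time point is decreased if signal falls significantly (2 sigma). Hits were called by the authors by a rule that is not shown; the count of time points alone does not decide it.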

By UniProt entry, the sequences of proteins in these tests, tags left out. Where a name states a change or a piece, a line headed by the entry shows the natural chain unless it says otherwise.
UniProt P42680: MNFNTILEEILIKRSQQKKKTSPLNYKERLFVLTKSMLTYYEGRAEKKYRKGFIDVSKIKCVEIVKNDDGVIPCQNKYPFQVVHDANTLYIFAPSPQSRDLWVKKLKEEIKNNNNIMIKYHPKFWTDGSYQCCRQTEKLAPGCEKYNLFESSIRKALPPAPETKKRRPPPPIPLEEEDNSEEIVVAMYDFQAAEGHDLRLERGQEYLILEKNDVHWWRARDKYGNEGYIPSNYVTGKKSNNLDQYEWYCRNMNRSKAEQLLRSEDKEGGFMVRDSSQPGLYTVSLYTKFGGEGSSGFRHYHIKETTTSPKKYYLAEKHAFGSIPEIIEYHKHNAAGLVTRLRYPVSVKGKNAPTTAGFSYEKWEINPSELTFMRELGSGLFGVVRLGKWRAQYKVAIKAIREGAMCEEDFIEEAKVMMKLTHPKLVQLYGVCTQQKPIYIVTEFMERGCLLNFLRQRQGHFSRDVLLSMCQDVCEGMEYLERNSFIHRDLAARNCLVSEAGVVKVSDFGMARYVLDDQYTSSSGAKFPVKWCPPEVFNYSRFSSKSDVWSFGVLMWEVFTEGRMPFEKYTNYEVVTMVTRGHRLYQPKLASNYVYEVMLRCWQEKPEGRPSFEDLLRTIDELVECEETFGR
UniProt Q6PHR2: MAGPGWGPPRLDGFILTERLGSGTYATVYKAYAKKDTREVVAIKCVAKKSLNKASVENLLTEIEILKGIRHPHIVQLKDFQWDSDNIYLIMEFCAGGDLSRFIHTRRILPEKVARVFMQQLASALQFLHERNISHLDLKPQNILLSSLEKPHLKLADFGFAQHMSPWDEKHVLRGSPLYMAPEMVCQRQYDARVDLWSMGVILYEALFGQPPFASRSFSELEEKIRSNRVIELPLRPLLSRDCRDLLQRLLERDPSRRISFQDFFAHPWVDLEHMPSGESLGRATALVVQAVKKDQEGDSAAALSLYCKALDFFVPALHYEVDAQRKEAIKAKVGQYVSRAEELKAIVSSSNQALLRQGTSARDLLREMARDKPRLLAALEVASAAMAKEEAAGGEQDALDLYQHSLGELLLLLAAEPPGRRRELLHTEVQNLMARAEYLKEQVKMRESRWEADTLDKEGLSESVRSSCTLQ
UniProt P07947, whole entry, looked up: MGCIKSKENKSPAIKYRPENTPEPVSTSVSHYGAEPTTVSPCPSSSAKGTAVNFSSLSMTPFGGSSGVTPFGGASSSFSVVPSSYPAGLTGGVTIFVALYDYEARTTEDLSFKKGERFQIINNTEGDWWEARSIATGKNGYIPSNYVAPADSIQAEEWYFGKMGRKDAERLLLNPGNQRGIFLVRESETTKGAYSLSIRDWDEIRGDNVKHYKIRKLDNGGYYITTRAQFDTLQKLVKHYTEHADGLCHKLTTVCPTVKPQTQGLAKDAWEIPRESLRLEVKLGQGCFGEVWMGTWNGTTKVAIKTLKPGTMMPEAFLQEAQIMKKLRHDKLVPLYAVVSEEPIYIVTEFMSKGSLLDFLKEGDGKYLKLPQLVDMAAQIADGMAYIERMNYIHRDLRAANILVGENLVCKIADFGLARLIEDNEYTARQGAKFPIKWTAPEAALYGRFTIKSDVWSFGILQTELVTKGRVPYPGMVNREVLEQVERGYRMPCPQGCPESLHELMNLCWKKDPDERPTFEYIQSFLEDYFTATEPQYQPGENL
UniProt P00519, whole entry: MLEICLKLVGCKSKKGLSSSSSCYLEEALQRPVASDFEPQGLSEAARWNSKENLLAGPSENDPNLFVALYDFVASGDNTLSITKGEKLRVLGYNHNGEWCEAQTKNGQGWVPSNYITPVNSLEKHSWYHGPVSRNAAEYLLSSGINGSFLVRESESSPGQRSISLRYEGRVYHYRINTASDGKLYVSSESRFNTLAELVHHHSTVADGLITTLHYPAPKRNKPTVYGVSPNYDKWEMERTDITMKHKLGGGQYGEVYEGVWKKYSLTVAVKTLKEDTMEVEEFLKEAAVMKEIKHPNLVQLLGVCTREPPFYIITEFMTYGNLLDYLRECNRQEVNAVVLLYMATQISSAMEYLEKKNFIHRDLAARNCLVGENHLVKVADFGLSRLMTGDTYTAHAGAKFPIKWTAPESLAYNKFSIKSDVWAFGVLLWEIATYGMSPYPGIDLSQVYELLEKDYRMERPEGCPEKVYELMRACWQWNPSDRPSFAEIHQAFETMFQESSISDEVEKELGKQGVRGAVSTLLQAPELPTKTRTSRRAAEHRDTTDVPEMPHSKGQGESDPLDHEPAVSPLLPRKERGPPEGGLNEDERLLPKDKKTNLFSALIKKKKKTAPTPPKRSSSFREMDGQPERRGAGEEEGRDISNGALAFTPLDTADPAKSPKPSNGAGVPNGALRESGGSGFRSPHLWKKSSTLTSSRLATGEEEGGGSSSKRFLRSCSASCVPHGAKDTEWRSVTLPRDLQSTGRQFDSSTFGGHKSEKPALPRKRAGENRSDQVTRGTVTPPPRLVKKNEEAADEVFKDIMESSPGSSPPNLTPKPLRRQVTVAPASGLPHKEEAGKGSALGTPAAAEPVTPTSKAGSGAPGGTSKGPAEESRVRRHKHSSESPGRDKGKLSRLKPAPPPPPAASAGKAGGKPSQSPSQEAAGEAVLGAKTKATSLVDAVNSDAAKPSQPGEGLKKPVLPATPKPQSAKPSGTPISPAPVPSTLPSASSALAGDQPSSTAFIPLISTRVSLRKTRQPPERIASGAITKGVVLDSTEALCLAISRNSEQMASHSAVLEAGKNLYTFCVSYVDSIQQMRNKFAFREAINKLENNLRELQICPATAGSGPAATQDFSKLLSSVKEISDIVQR
UniProt P31749: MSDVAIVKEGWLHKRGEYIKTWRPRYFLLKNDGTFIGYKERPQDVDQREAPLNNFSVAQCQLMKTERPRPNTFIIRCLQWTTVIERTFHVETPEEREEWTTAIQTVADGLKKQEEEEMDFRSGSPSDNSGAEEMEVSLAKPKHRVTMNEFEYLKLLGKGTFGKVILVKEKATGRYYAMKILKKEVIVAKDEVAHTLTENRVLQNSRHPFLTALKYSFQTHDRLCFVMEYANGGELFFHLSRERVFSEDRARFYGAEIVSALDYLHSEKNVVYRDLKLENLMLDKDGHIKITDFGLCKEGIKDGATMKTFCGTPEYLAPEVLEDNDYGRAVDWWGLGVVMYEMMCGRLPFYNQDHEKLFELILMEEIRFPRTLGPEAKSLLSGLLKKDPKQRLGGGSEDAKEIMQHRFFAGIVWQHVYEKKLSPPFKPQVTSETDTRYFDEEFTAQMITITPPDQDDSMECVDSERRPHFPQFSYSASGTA
UniProt Q9UM73: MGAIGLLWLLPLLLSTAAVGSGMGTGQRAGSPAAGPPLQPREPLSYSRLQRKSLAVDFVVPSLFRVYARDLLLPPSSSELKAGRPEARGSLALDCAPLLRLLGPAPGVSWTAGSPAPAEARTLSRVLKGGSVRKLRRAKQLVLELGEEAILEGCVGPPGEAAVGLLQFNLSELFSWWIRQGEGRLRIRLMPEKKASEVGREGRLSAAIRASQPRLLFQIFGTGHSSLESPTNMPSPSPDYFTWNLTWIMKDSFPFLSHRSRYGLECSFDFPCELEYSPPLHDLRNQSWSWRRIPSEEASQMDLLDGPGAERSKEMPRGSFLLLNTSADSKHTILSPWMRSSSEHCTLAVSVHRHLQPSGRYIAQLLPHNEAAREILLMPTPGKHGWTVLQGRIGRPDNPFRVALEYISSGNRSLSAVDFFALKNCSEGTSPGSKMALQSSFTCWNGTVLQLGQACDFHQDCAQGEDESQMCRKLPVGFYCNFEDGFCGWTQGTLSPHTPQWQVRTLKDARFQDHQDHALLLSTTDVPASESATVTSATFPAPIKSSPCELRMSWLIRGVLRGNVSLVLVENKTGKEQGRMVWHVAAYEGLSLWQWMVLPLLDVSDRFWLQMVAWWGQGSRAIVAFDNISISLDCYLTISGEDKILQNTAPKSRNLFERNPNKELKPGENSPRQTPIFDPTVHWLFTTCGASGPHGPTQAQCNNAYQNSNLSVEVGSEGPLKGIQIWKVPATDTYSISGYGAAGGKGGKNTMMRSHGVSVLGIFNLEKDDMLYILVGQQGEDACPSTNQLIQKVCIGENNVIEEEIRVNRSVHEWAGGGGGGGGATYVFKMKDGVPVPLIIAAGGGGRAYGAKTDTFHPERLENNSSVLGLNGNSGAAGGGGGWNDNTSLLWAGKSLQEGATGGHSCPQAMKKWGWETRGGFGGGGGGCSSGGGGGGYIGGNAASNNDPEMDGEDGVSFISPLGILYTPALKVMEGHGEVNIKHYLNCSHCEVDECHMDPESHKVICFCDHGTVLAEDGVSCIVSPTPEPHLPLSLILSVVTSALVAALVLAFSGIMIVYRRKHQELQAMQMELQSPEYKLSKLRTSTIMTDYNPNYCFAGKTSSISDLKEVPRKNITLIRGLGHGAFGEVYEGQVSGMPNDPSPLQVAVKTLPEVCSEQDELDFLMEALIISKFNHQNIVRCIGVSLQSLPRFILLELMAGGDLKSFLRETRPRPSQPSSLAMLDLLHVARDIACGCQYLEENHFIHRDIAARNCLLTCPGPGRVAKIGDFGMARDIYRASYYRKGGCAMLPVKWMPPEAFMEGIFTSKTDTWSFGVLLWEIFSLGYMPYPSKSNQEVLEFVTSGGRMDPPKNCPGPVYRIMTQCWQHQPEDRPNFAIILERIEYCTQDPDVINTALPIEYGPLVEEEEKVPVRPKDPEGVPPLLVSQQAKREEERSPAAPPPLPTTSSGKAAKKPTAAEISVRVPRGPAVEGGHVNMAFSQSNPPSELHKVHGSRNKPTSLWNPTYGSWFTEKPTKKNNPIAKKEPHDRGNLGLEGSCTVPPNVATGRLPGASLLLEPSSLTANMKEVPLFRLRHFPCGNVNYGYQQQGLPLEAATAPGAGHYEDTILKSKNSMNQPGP
UniProt Q96GD4, whole entry: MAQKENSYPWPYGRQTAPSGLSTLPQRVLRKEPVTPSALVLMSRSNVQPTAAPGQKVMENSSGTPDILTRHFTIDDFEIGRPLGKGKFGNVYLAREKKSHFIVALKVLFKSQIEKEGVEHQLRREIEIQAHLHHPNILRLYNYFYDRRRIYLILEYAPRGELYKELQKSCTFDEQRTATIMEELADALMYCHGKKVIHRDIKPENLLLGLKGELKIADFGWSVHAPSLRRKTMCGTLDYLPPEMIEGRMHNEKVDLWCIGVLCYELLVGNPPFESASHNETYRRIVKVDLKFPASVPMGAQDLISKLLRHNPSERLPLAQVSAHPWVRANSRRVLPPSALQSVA
UniProt P51813: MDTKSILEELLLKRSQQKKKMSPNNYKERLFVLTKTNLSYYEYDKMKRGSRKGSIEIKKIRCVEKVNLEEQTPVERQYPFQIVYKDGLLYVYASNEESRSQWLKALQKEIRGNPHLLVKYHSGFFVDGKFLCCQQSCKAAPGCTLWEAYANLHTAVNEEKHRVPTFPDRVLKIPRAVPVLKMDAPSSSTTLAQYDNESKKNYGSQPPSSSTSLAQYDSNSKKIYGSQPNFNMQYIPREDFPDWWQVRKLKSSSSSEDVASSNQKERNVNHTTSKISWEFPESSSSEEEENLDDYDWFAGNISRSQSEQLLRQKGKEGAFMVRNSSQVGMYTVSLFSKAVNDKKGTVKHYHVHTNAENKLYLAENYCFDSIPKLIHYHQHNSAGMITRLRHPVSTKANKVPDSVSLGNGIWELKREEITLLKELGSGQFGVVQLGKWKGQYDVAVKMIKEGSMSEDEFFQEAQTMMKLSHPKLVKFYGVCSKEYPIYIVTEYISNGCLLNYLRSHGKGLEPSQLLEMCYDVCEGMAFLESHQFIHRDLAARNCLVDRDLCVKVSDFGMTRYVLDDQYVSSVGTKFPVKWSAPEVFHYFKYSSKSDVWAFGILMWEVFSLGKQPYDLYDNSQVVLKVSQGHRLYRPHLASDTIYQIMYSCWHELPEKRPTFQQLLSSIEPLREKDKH
UniProt Q06187: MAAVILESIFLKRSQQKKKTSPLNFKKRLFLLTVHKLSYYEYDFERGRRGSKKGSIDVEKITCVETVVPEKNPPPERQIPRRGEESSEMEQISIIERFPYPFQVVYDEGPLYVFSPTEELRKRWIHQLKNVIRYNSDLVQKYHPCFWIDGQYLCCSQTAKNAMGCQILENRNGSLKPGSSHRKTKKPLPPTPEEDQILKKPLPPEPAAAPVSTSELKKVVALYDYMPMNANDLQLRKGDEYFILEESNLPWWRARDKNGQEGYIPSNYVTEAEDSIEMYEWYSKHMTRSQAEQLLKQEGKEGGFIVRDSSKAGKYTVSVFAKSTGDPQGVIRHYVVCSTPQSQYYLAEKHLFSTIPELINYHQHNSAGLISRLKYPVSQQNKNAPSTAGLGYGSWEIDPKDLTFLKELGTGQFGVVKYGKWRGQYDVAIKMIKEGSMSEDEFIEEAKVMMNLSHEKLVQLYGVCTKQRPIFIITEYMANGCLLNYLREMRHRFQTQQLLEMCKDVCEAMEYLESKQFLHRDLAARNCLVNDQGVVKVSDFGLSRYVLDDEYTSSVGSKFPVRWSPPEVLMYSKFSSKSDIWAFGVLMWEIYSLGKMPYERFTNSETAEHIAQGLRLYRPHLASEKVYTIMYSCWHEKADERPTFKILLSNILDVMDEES

What was measured:
Conditions in all cases: K562; 2-18 h
STK38 = STK38 (UniProt Q15208); test: kinase-Nluc reporter destabilization hit call (1 = scored as downregulated) (binary); higher = compound decreases kinase abundance
SYK = SYK (UniProt P43405); test: as above
TEC = TEC (UniProt P42680); test: as above
TYK2 = TYK2 (UniProt P29597); test: as above
ULK3 = ULK3 (UniProt Q6PHR2); test: as above
YES1 = YES1 (UniProt P07947); test: as above
ZAK = ZAK (UniProt Q9NYL2); test: as above
ZAP70 = ZAP70 (UniProt P43403); test: as above
ABL1 = ABL1 (UniProt P00519); test: number of time points (of 5) at which kinase-Nluc abundance scored as decreased, DMSO-normalised (count); higher = more persistent destabilization
AKT1 = AKT1 (UniProt P31749); test: as above
ALK = ALK (UniProt Q9UM73); test: as above
ARAF = ARAF (UniProt P10398); test: as above
AURKA = AURKA (UniProt O14965); test: as above
AURKB = AURKB (UniProt Q96GD4); test: as above
AURKC = AURKC (UniProt Q9UQB9); test: as above
BLK = BLK (UniProt P51451); test: as above
BMX = BMX (UniProt P51813); test: as above
BRAF = BRAF (UniProt P15056); test: as above
BRAF_V600E = test: as above
BTK = BTK (UniProt Q06187); test: as above

C[C@H](CCC(=O)O)C[C@H](C)C[C@H](C)C(=O)/C=C(\O)[C@H](C)C[C@H](C)C/C=C/[C@@H](C)[C@@H](O)[C@@H](C)[C@@H](O)C[C@@H]1CC[C@@](C)([C@H]2CC[C@@](C)([C@@H](C)O)O2)O1 [Ionomycin (calcium)] (2.5 µM)
active: kinase-Nluc reporter destabilization hit call (STK38) 1
0: number of time points (ABL1) | number of time points (AKT1) | number of time points (ALK) | number of time points (ARAF) | number of time points (AURKB) | number of time points (AURKC) | number of time points (BLK) | number of time points (BMX) | number of time points (BRAF) | number of time points (BRAF_V600E) | number of time points (BTK)
5: number of time points (AURKA)
inactive: kinase-Nluc reporter destabilization hit call (SYK) 0 | kinase-Nluc reporter destabilization hit call (TEC) 0 | kinase-Nluc reporter destabilization hit call (TYK2) 0 | kinase-Nluc reporter destabilization hit call (ULK3) 0 | kinase-Nluc reporter destabilization hit call (YES1) 0 | kinase-Nluc reporter destabilization hit call (ZAK) 0 | kinase-Nluc reporter destabilization hit call (ZAP70) 0

CC(=O)c1c(O)c(C)c(O)c(Cc2c(O)c3c(c(C(=O)/C=C/c4ccccc4)c2O)OC(C)(C)C=C3)c1O [Rottlerin] (2 µM)
0: number of time points (AKT1) | number of time points (ALK) | number of time points (ARAF) | number of time points (AURKA) | number of time points (AURKB) | number of time points (AURKC) | number of time points (BLK) | number of time points (BRAF) | number of time points (BRAF_V600E) | number of time points (BTK)
1: number of time points (ABL1)
inactive: kinase-Nluc reporter destabilization hit call (STK38) 0 | kinase-Nluc reporter destabilization hit call (SYK) 0 | kinase-Nluc reporter destabilization hit call (TEC) 0 | kinase-Nluc reporter destabilization hit call (TYK2) 0 | kinase-Nluc reporter destabilization hit call (ULK3) 0 | kinase-Nluc reporter destabilization hit call (YES1) 0 | kinase-Nluc reporter destabilization hit call (ZAK) 0 | kinase-Nluc reporter destabilization hit call (ZAP70) 0
2: number of time points (BMX)

CC1=C[C@]23C(=O)[C@@H](C=C(CO)[C@@H](O)[C@]2(O)[C@H]1O)[C@H]1[C@@H](C[C@H]3C)C1(C)C [Ingenol] (10 µM)
inactive: kinase-Nluc reporter destabilization hit call (STK38) 0 | kinase-Nluc reporter destabilization hit call (SYK) 0 | kinase-Nluc reporter destabilization hit call (TEC) 0 | kinase-Nluc reporter destabilization hit call (TYK2) 0 | kinase-Nluc reporter destabilization hit call (ULK3) 0 | kinase-Nluc reporter destabilization hit call (YES1) 0 | kinase-Nluc reporter destabilization hit call (ZAK) 0 | kinase-Nluc reporter destabilization hit call (ZAP70) 0
0: number of time points (ABL1) | number of time points (AKT1) | number of time points (ALK) | number of time points (ARAF) | number of time points (AURKA) | number of time points (AURKB) | number of time points (AURKC) | number of time points (BLK) | number of time points (BMX) | number of time points (BRAF) | number of time points (BRAF_V600E) | number of time points (BTK)

C=CC(=O)Nc1ccc2[nH]c(=O)n(C3CCN(Cc4ccc(-c5nc6cc[nH]c(=O)c6cc5-c5ccccc5)cc4)CC3)c2c1 [Borussertib] (10 µM)
3: number of time points (BLK)
inactive: kinase-Nluc reporter destabilization hit call (STK38) 0 | kinase-Nluc reporter destabilization hit call (SYK) 0 | kinase-Nluc reporter destabilization hit call (TEC) 0 | kinase-Nluc reporter destabilization hit call (TYK2) 0 | kinase-Nluc reporter destabilization hit call (ULK3) 0 | kinase-Nluc reporter destabilization hit call (YES1) 0 | kinase-Nluc reporter destabilization hit call (ZAK) 0 | kinase-Nluc reporter destabilization hit call (ZAP70) 0
0: number of time points (ABL1) | number of time points (AKT1) | number of time points (ALK) | number of time points (ARAF) | number of time points (AURKA) | number of time points (AURKB) | number of time points (AURKC) | number of time points (BMX) | number of time points (BRAF) | number of time points (BRAF_V600E) | number of time points (BTK)

O=C1c2ccccc2C(=O)c2c1cccc2-c1cnn(C2CCNCC2)c1 [PDK4-IN-1 (hydrochloride)] (10 µM)
inactive: kinase-Nluc reporter destabilization hit call (STK38) 0 | kinase-Nluc reporter destabilization hit call (SYK) 0 | kinase-Nluc reporter destabilization hit call (TEC) 0 | kinase-Nluc reporter destabilization hit call (TYK2) 0 | kinase-Nluc reporter destabilization hit call (ULK3) 0 | kinase-Nluc reporter destabilization hit call (YES1) 0 | kinase-Nluc reporter destabilization hit call (ZAK) 0 | kinase-Nluc reporter destabilization hit call (ZAP70) 0
0: number of time points (ABL1) | number of time points (AKT1) | number of time points (ALK) | number of time points (ARAF) | number of time points (AURKA) | number of time points (AURKB) | number of time points (AURKC) | number of time points (BLK) | number of time points (BMX) | number of time points (BRAF) | number of time points (BTK)
1: number of time points (BRAF_V600E)

C[C@H]1CC[C@]2(NC1)O[C@H]1C[C@H]3[C@@H]4CC[C@H]5C[C@@H](O)CC[C@]5(C)[C@H]4CC[C@]3(C)[C@H]1[C@@H]2C [Tomatidine] (2 µM)
0: number of time points (ABL1) | number of time points (AKT1) | number of time points (ALK) | number of time points (ARAF) | number of time points (AURKA) | number of time points (AURKB) | number of time points (AURKC) | number of time points (BLK) | number of time points (BMX) | number of time points (BRAF) | number of time points (BRAF_V600E) | number of time points (BTK)
inactive: kinase-Nluc reporter destabilization hit call (STK38) 0 | kinase-Nluc reporter destabilization hit call (SYK) 0 | kinase-Nluc reporter destabilization hit call (TEC) 0 | kinase-Nluc reporter destabilization hit call (TYK2) 0 | kinase-Nluc reporter destabilization hit call (ULK3) 0 | kinase-Nluc reporter destabilization hit call (YES1) 0 | kinase-Nluc reporter destabilization hit call (ZAK) 0 | kinase-Nluc reporter destabilization hit call (ZAP70) 0

Nc1ncnc2c1ncn2[C@@H]1O[C@@H]2COP(O)(=S)O[C@H]2[C@H]1O (stereo not given in full) [Sp-cAMPS (sodium salt)] (10 µM)
inactive: kinase-Nluc reporter destabilization hit call (STK38) 0 | kinase-Nluc reporter destabilization hit call (SYK) 0 | kinase-Nluc reporter destabilization hit call (TEC) 0 | kinase-Nluc reporter destabilization hit call (TYK2) 0 | kinase-Nluc reporter destabilization hit call (ULK3) 0 | kinase-Nluc reporter destabilization hit call (YES1) 0 | kinase-Nluc reporter destabilization hit call (ZAK) 0 | kinase-Nluc reporter destabilization hit call (ZAP70) 0
0: number of time points (ABL1) | number of time points (AKT1) | number of time points (ALK) | number of time points (ARAF) | number of time points (AURKA) | number of time points (AURKB) | number of time points (AURKC) | number of time points (BLK) | number of time points (BRAF) | number of time points (BRAF_V600E) | number of time points (BTK)
1: number of time points (BMX)

COC[C@H]1OC(=O)c2coc3c2[C@@]1(C)C1=C(C3=O)[C@@H]2CCC(=O)[C@@]2(C)C[C@H]1OC(C)=O [Wortmannin] (2.5 µM)
0: number of time points (AKT1) | number of time points (ALK) | number of time points (ARAF) | number of time points (AURKC) | number of time points (BRAF) | number of time points (BTK)
inactive: kinase-Nluc reporter destabilization hit call (STK38) 0 | kinase-Nluc reporter destabilization hit call (SYK) 0 | kinase-Nluc reporter destabilization hit call (TEC) 0 | kinase-Nluc reporter destabilization hit call (TYK2) 0 | kinase-Nluc reporter destabilization hit call (ULK3) 0 | kinase-Nluc reporter destabilization hit call (YES1) 0 | kinase-Nluc reporter destabilization hit call (ZAK) 0 | kinase-Nluc reporter destabilization hit call (ZAP70) 0
4: number of time points (ABL1) | number of time points (AURKA) | number of time points (AURKB) | number of time points (BMX)
3: number of time points (BLK) | number of time points (BRAF_V600E)

O=c1cc(O)c2ccccc2o1 [4-Hydroxycoumarin] (10 µM)
inactive: kinase-Nluc reporter destabilization hit call (STK38) 0 | kinase-Nluc reporter destabilization hit call (SYK) 0 | kinase-Nluc reporter destabilization hit call (TEC) 0 | kinase-Nluc reporter destabilization hit call (TYK2) 0 | kinase-Nluc reporter destabilization hit call (ULK3) 0 | kinase-Nluc reporter destabilization hit call (YES1) 0 | kinase-Nluc reporter destabilization hit call (ZAK) 0 | kinase-Nluc reporter destabilization hit call (ZAP70) 0
0: number of time points (ABL1) | number of time points (AKT1) | number of time points (ALK) | number of time points (ARAF) | number of time points (AURKA) | number of time points (AURKB) | number of time points (AURKC) | number of time points (BLK) | number of time points (BMX) | number of time points (BRAF) | number of time points (BRAF_V600E) | number of time points (BTK)

Random excerpt: 2 entries already listed
C[C@H]1CC[C@]2(NC1)O[C@H]1C[C@H]3[C@@H]4CC[C@H]5C[C@@H](O)CC[C@]5(C)[C@H]4CC[C@]3(C)[C@H]1[C@@H]2C [Tomatidine] (2 µM)
0: number of time points (ABL1) | number of time points (AKT1) | number of time points (ALK) | number of time points (ARAF) | number of time points (AURKA) | number of time points (AURKB) | number of time points (AURKC) | number of time points (BLK) | number of time points (BMX) | number of time points (BRAF) | number of time points (BRAF_V600E) | number of time points (BTK)
inactive: kinase-Nluc reporter destabilization hit call (STK38) 0 | kinase-Nluc reporter destabilization hit call (SYK) 0 | kinase-Nluc reporter destabilization hit call (TEC) 0 | kinase-Nluc reporter destabilization hit call (TYK2) 0 | kinase-Nluc reporter destabilization hit call (ULK3) 0 | kinase-Nluc reporter destabilization hit call (YES1) 0 | kinase-Nluc reporter destabilization hit call (ZAK) 0 | kinase-Nluc reporter destabilization hit call (ZAP70) 0

O=c1cc(O)c2ccccc2o1 [4-Hydroxycoumarin] (10 µM)
inactive: kinase-Nluc reporter destabilization hit call (STK38) 0 | kinase-Nluc reporter destabilization hit call (SYK) 0 | kinase-Nluc reporter destabilization hit call (TEC) 0 | kinase-Nluc reporter destabilization hit call (TYK2) 0 | kinase-Nluc reporter destabilization hit call (ULK3) 0 | kinase-Nluc reporter destabilization hit call (YES1) 0 | kinase-Nluc reporter destabilization hit call (ZAK) 0 | kinase-Nluc reporter destabilization hit call (ZAP70) 0
0: number of time points (ABL1) | number of time points (AKT1) | number of time points (ALK) | number of time points (ARAF) | number of time points (AURKA) | number of time points (AURKB) | number of time points (AURKC) | number of time points (BLK) | number of time points (BMX) | number of time points (BRAF) | number of time points (BRAF_V600E) | number of time points (BTK)

(more compounds)

O=C1C=CC[C@@H]2[C@H]3CCCN4CCC[C@@H](CN12)[C@@H]34 [Sophocarpine] (10 µM)
inactive: kinase-Nluc reporter destabilization hit call (STK38) 0 | kinase-Nluc reporter destabilization hit call (SYK) 0 | kinase-Nluc reporter destabilization hit call (TEC) 0 | kinase-Nluc reporter destabilization hit call (TYK2) 0 | kinase-Nluc reporter destabilization hit call (ULK3) 0 | kinase-Nluc reporter destabilization hit call (YES1) 0 | kinase-Nluc reporter destabilization hit call (ZAK) 0 | kinase-Nluc reporter destabilization hit call (ZAP70) 0
0: number of time points (ABL1) | number of time points (AKT1) | number of time points (ALK) | number of time points (ARAF) | number of time points (AURKA) | number of time points (AURKB) | number of time points (AURKC) | number of time points (BLK) | number of time points (BMX) | number of time points (BRAF) | number of time points (BRAF_V600E) | number of time points (BTK)
